From patent US20250084036A1, “COMPOUND, ALDEHYDE DEHYDROGENASE 2 ACTIVATOR, PHARMACEUTICAL COMPOSITION, AND THERAPEUTIC AND/OR PROPHYLACTIC DRUG” (Alchemedicine, Inc., priority 2022, published 2025)
Some entries share one result that the patent states for a list of compounds.

Key:
[1] = biological target: T1, human recombinant ALDH2 enzyme (Homo sapiens, UniProt P05091); assay: Test Example 1-2: ALDH2 activation effect (acetaldehyde oxidation rate, PicoProbe kit); assay type: biochemical; details: conclusion from Table 2
T1 construct: purchased Abcam ab87415
T1 sequence (P05091 18-517): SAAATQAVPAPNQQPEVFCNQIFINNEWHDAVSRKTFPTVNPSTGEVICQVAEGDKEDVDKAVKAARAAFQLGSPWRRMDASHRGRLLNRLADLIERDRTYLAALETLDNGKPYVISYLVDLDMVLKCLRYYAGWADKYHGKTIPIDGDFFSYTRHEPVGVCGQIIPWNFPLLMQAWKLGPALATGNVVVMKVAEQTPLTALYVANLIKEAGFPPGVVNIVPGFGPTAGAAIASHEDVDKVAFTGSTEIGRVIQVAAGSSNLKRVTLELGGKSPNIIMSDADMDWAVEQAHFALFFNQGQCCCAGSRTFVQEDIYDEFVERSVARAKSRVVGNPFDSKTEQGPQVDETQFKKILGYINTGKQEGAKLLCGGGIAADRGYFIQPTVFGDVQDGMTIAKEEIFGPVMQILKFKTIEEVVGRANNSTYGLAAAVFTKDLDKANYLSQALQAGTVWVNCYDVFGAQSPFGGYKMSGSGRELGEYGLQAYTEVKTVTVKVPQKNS
Description: (§1) The activation effect of each test compound on the acetaldehyde oxidation rate of ALDH2 was measured with the following method. A test was conducted by using a commercially available PicoProbe™ Aldehyde dehydrogenase Activity Assay Kit (manufactured by Abcam) with reference to an instruction attached to the product under the following conditions. To each well of a 384-well plate, the following (1) to (3) were sequentially added with a pipette: • (1) 10 μL of solution obtained by dissolving and diluting a human recombinant ALDH2 enzyme (manufactured by Abcam, product number: ab87415) with ALDH assay Buffer (final concentration: 1 μg/mL); • (2) 10 μL of 30 μM or 90 μM test compound solution (with 3% DMSO) prepared by using ALDH assay Buffer; and • (3) 10 μL of Reaction mix composed with ratio of 7.3 μL of ALDH assay Buffer, 0.6 μL of PicoProbe, 0.6 μL of Substrate Mix, and 1.5 μL of Acetaldehyde.
(§2) Before addition of (3), incubation was performed at room temperature for 5 minutes. After addition of (3), fluorescence intensity was measured at room temperature every 2.5 minutes over a period of 60 minutes by using an EnVision (manufactured by PerkinElmer Inc.) to determine the oxidation rate. Wavelengths of 535 nm and 587 nm were used for fluorescence intensities of excitation and emission, respectively.

[2] = Test Example 4: Reactive metabolite (glutathione conjugate in human hepatic microsomes); assay type: in vitro ADME; details: compared with clozapine
[3] = Test Example 2: Metabolic stability with mouse hepatic microsomes; assay type: in vitro ADME; details: compared with conventional ALDH2 activators
Description: Metabolic stability in mouse hepatic microsomes was evaluated with the following method.
• (1) Mouse hepatic microsomes: 20 mg/mL • (2) Test compound: 1.1 mM DMSO solution • (3) Potassium phosphate buffer solution: 66.7 mM (pH 7.4) • (4) NADPH solution: 10 mM in potassium phosphate buffer solution • (5) Quenching solution: 0.5% formic acid-acetonitrile solution with warfarin as internal standard substance
Into a propylene tube, 971.5 μL of the potassium phosphate buffer solution and 27.5 μL of the mouse hepatic microsomes were put, and suspended. Thereto, 1 μL of a test compound was added, and 180 μL was taken from this mixture and transferred into another tube. The mixture was preincubated at 37° C. for 5 minutes, and 20 μL of the NADPH solution (for the case with an incubation time of 30 minutes) or 20 μL of the potassium phosphate buffer solution (for the case with an incubation time of 0 minutes) was then added thereto. After incubation, 200 μL of the quenching solution was added to terminate the reaction. Subsequently, centrifugation was performed at 3220×g for 20 minutes, and the concentration of the unchanged form of the test compound in 200 μL of the supernatant was measured with LC-MS/MS. On the basis of the peak area obtained for the unchanged form, the residual rate (%) of the unchanged form was calculated as that for the case with an incubation time of 0 minutes was assumed as 100%.

[4] = biological target: T1, human recombinant ALDH2 enzyme; assay: Test Example 1-1: ALDH2 activation effect (acetaldehyde oxidation rate, PicoProbe kit); assay type: biochemical; details: conclusion from Table 1
Description: as §1, with “by BioVision Inc.)” for “by Abcam)”, “concentration: 2” for “concentration: 1”, “of […]” for “of 7.3”, “PicoProbe, 0.3” for “PicoProbe, 0.6”
as §2, with “180” for “60”, “EnSight” for “EnVision”

SMILES	ALDH2 activation effect (in words) [1]	generation of the reactive metabolite (in words) [2]	metabolic stability in mouse hepatic microsomes (in words) [3]	ALDH2 activation effect (in words) [4]
COc1ncc(CNC(=O)c2cc(-c3ncccc3[C@@H](C)O)ccc2F)cc1F (single isomer, unassigned) [Example 4, 2-fluoro-N-((5-fluoro-6-methoxypyridin-3-yl)methyl)-5-(3-(1-hydroxyethyl)pyridin-2-yl)benzamide]	have ALDH2 activation effect	less generation of the reactive metabolite than clozapine causes	superior in metabolic stability in mouse hepatic microsomes to conventional ALDH2 activators	
COc1ncc(CNC(=O)c2cc(-c3ncccc3[C@@H](C)O)ccc2F)cc1F (single isomer, unassigned) [Example 5, 2-fluoro-N-((5-fluoro-6-methoxypyridin-3-yl)methyl)-5-(3-(1-hydroxyethyl)pyridin-2-yl)benzamide]	have ALDH2 activation effect	less generation of the reactive metabolite than clozapine causes	superior in metabolic stability in mouse hepatic microsomes to conventional ALDH2 activators	
COCc1ccc(CNC(=O)c2cc(-c3ncccc3CO)ccc2F)cn1 [Example 1, 2-Fluoro-5-(3-(hydroxymethyl)pyridin-2-yl)-N-((6-(methoxymethyl)pyridin-3-yl)methyl)benzamide]		less generation of the reactive metabolite than clozapine causes	superior in metabolic stability in mouse hepatic microsomes to conventional ALDH2 activators	have ALDH2 activation effect
COc1ccc(CNC(=O)c2cc(-c3ncccc3CO)ccc2F)cn1 [Example 2, 2-Fluoro-5-(3-(hydroxymethyl)pyridin-2-yl)-N-((6-methoxypyridin-3-yl)methyl)benzamide]		less generation of the reactive metabolite than clozapine causes	superior in metabolic stability in mouse hepatic microsomes to conventional ALDH2 activators	have ALDH2 activation effect
COc1ncc(CNC(=O)c2cc(-c3ncccc3CO)ccc2F)cc1F [Example 3, 2-Fluoro-N-((5-fluoro-6-methoxypyridin-3-yl)methyl)-5-(3-(hydroxymethyl)pyridin-2-yl)benzamide]		less generation of the reactive metabolite than clozapine causes	superior in metabolic stability in mouse hepatic microsomes to conventional ALDH2 activators	have ALDH2 activation effect
O=C(NCc1ccc(OC(F)F)nc1)c1cc(-c2ncccc2CO)ccc1F [Example 6, N-((6-(Difluoromethoxy)pyridin-3-yl)methyl)-2-fluoro-5-(3-(hydroxymethyl)pyridin-2-yl)benzamide]	have ALDH2 activation effect	less generation of the reactive metabolite than clozapine causes	superior in metabolic stability in mouse hepatic microsomes to conventional ALDH2 activators	
CCOc1ncc(CNC(=O)c2cc(-c3ncccc3CO)ccc2F)cc1F [Example 7, N-((6-Ethoxy-5-fluoropyridin-3-yl)methyl)-2-fluoro-5-(3-(hydroxymethyl)pyridin-2-yl)benzamide]	have ALDH2 activation effect	less generation of the reactive metabolite than clozapine causes	superior in metabolic stability in mouse hepatic microsomes to conventional ALDH2 activators	
CC(C)Oc1ncc(CNC(=O)c2cc(-c3ncccc3CO)ccc2F)cc1F [Example 8, 2-Fluoro-N-((5-fluoro-6-isopropoxypyridin-3-yl)methyl)-5-(3-(hydroxymethyl)pyridin-2-yl)benzamide]	have ALDH2 activation effect	less generation of the reactive metabolite than clozapine causes	superior in metabolic stability in mouse hepatic microsomes to conventional ALDH2 activators	
O=C(NCc1cnc(OC2CC2)c(F)c1)c1cc(-c2ncccc2CO)ccc1F [Example 9, N-((6-Cyclopropoxy-5-fluoropyridin-3-yl)methyl)-2-fluoro-5-(3-(hydroxymethyl)pyridin-2-yl)benzamide]	have ALDH2 activation effect	less generation of the reactive metabolite than clozapine causes	superior in metabolic stability in mouse hepatic microsomes to conventional ALDH2 activators	
